Measured values taken from PMC5536908.
Results are given in words; binding and its absence hold for the method and conditions named. Binding seen in cells or lysates may run through a third protein. Here binding means that the protein was enriched with, or labelled near, the bait; the list need not be complete. Sequences can lack the tags named with a protein.

The chains behind the UniProt entries cited, without tags or fusion partners.
UniProt P54647: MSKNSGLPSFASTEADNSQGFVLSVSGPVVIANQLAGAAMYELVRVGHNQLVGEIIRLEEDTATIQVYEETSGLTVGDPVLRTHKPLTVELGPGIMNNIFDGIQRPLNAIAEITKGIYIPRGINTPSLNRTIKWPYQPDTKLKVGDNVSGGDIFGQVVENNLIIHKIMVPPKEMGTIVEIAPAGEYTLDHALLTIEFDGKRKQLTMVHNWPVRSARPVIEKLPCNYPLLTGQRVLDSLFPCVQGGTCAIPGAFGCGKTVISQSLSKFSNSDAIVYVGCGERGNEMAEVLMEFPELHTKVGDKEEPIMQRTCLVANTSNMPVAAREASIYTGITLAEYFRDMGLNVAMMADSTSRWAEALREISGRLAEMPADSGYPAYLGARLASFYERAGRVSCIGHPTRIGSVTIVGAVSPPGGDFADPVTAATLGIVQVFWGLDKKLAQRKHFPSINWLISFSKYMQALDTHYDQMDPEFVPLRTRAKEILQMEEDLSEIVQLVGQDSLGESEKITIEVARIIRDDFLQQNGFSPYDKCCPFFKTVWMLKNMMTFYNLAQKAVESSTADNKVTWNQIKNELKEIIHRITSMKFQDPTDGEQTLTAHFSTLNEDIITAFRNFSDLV

T1: GPHR-GFP (Dictyostelium discoideum Golgi pH regulator, GFP-tagged) (D. discoideum) (UniProt Q54QM5)
T1 sequence: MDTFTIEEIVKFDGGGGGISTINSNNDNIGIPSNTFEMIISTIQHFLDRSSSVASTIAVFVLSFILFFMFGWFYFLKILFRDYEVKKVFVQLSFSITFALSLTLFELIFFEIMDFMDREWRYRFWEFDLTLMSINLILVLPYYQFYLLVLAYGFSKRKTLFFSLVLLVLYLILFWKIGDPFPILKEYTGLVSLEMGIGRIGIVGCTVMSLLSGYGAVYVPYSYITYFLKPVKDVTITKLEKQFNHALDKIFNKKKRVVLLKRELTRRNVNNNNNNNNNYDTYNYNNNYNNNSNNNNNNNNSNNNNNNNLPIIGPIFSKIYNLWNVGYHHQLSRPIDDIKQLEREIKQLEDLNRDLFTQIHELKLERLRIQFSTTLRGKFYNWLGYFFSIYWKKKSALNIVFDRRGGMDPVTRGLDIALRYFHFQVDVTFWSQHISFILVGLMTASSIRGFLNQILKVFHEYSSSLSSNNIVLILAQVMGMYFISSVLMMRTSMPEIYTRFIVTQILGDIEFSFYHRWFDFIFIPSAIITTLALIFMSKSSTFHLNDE

B1: V-ATPase subunit M (protein, UniProt Q54E04 1-815)
chain: MSFLRPSIWRSSPMQMVQLFVQIEAAHDTVDELGKLGLIQFLDDNEHVNLFQRNFVNEVKRCDDMEKKLKFFEDQVKKEPKLQKLLPDNMLSVVDDDSQMDELEGRFDELESELKQVNANQETLQRNYNELIQLRHVLTKDSVFFQENPNLIEGEGHEHSARSPLLAEDQHVSEVAKQGVKLGFITGVMNTDKMPQFQRSLWRTTRGNNYVKDARIEEEIIDPQTGEETAKTVFIVFFQGERLQQKIKKICESFGANIYDCPDNSFERSNLLQKVTVRITDLYEVLQRSKDHKRQTLAGIVPRLYSWKKKVLLEKSIYHTMNLFDYDVGRKCLIAKGWTPKDKIEEIQLALRTATTRSGALVPSVLSIIKTEGSPPTHFETNKYTSSFQEIVNAYGIAHYREVNPAVLTIVTFPFLFGVMFGDVGHGALLLLSALGLISLEKKLAGKKLNELIQMPFDGRYVLFLMSLFSIYVGFIYNECFSIPMNIFGSQYNLNSTTGLYTYQHTDRVYPVGVDPLWKGAPNELVYYNSFKMKLSIIFGVVQMSVGICFSLLNYLNQKGPIKIVNILTQFVPQMIFLWSIFGYMSVLIILKWVVPYRSFEVDKVDPPFILPTIIAMFLSPGGTPDVVFFSGQGAVQTALLFLALISIPVMLVIKPLFMKRFHFQEVERKKLGHHEEEHDDEALYTGHHGEEFEMGEVFVHQVIHTIEFVLGAVSNTASYLRLWALSLAHSELSSVFWERILIGQVERGNPFLAFVGFGAWLGASVAVLLLMESLSAFLHALRLHWVEFQNKFYIGDGVRFIPYSATRILSEDDE

What follows are molecules tested against T1, GPHR-GFP (Dictyostelium discoideum Golgi pH regulator, GFP-tagged) (D. discoideum) (assay: affinity purification with mass spectrometry; GPHR-GFP (control: GFP) immunoprecipitated from D. discoideum cell lysates with polyclonal anti-GFP antibodies on Protein A-Sepharose; SDS-PAGE, Coomassie-stained bands cut out, LCMS).

Q: “V-ATPase subunit D (D. discoideum (endogenous))” was tested. Which binding did it give?
A: Its binding is “binds”.

Q: With “V-ATPase subunit A (from UniProt P54647 1-618)” as the molecule, how does the binding read?
A: Its binding is “binds”.

Q: Which binding does the source give for B1 here?
A: The binding was “binds”.
